Results are given in words; binding and its absence hold for the method and conditions named. In cells and extracts the contact can be indirect. A yes stands for co-enrichment or nearness to the bait. Other partners may have been found. No binding means not detected with the bait.

Amino acid sequences for entries named in this document (tags omitted). Residues count along the entry.
UniProt P13109, residues 10-154: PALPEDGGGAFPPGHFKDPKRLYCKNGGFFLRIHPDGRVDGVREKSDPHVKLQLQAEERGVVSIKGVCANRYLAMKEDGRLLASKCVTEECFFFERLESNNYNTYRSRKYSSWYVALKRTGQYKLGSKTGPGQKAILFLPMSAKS
UniProt Q07021, residues 74-282: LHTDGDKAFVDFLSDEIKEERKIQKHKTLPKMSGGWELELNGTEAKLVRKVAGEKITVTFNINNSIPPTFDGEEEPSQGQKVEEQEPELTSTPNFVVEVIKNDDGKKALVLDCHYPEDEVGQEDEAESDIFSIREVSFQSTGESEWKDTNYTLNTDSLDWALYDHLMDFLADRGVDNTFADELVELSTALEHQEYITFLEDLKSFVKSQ

The target of the test is lo‐FGF2 (18‐kDa low molecular weight FGF2) used for affinity chromatography (UniProt P13109). Briefly: affinity purification with mass spectrometry; affinity chromatography with hi‐FGF2 and lo‐FGF2, nuclear and cytosolic fractions; bands of 21 to 45 kDa excised, HPLC‐MS; told as 'our previous study', shown in Figure S2.

With “C1QBP found by affinity chromatography and mass spectrometry (from UniProt Q07021 74-282)”, the binding entry is given as “no binding”.
